This is one part of the list. The main result of the screen is listed elsewhere. These columns were measured beside it and carry no call. The list favours compounds with an active or inconclusive main result. The note in brackets gives the kind of curve behind each potency; many fits are weak.
Test: qHTS Assay for Modulators of Lamin A Splicing
Conditions: HeLa LMNA splicing GFP/RFP minigene ratio, 48 h
Summary of the method: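 S3 HeLa cells stably expressing lamin A-EGFP splicing minigene plus DsRed2, 600 cells/well, 48 h compound exposure at 37C. Laser-scanning cytometry; analysed as GFP (500-530 nm)/RFP (575-640 nm) total intensity ratio; 0.5% DMSO vehicle.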

[1] = measured here: GFP splicing reporter channel
[2] = measured here: RFP viability control channel

SMILES | AC50 [1] | AC50 [2]
CCNC(=S)N/N=C(\C)c1ccc(Cl)s1 | 12.6 µM [rising, partial curve, poor fit] | 14.1 µM [rising, single point]
CCN(CC)C(=O)Oc1ccc2c(=O)c(-c3ccc(OC)cc3)c(C)oc2c1 | 20 µM [rising, partial curve, poor fit] | 20 µM [rising, partial curve]
CC(C)(C)NC(=O)C(c1ccncc1)N(Cc1ccco1)C(=O)c1ccc(-c2ccccc2)[nH]1 (stereo not given) |  | 22.4 µM [falling, single point]
Cc1cc(NC(=O)c2ccccc2-c2ccccc2)ccc1Br | 25.1 µM [rising, single point] | 35.5 µM [rising, single point]
Cc1ccn2c(CNCCn3nc(C)cc3C)c(C(=O)N3CCCCCC3)nc2c1 | 0.01 µM [rising, full curve, poor fit] | 
Cc1ccc2nc(N(Cc3cccnc3)C(=O)C3COc4ccccc4O3)sc2c1 (stereo not given) | 0.178 µM [rising, full curve, poor fit] | 
CCc1c(C)sc2c1CCN(Cc1ccc(F)cc1)C2c1ccccc1 (stereo not given) | 2.82 µM [rising, partial curve, poor fit] | 14.1 µM [rising, partial curve]
O=c1cc(Cn2ccnc2)c2cc3c(cc2o1)CCC3 | 11.2 µM [rising, partial curve] | 
CCCN(CCc1ccccc1)C1CCc2c(O)cccc2C1 (stereo not given) | 0.00158 µM [rising, full curve, poor fit] | 0.00355 µM [rising, full curve, poor fit]
Cc1ccc(S(=O)(=O)NNC(=O)Nc2ccc(Cl)c(Cl)c2)cc1 | 11.2 µM [falling, single point] | 
CCc1nnc(NC(=O)CSCc2cc(=O)c3ccc(C)cc3[nH]2)s1 | 0.501 µM [rising, full curve, poor fit] | 1.41 µM [rising, partial curve, poor fit]
CCCSc1nc(C)c(-c2csc(C(C#N)=C3CCCC3)n2)cc1C#N | 17.8 µM [rising, single point] | 
O=C(N/C(=C\c1ccc([N+](=O)[O-])cc1)C(=O)N1CCOCC1)c1ccccc1 |  | 1.41 µM [falling, partial curve, poor fit]
COc1cccc(C(=O)Nc2nnc(-c3cccs3)o2)c1 |  | 2.82 µM [rising, partial curve, poor fit]
Cc1cc(O)c(C(c2ccccc2Cl)N2CCN(c3ccccc3)CC2)c(=O)n1Cc1ccco1 (stereo not given) |  | 0.282 µM [rising, full curve, poor fit]
CCC(C)NC(=O)CC(NS(=O)(=O)c1ccc(C)cc1)c1ccc(OC)cc1 (stereo not given) |  | 0.891 µM [falling, full curve, poor fit]
Nc1nc(SCc2ccc(Cl)cc2Cl)nc2nc3c(cc12)CCCC3 | 11.2 µM [rising, partial curve] | 

SMILES | AC50 [1] | AC50 [2]
Cc1cc(C(=O)N/N=C2/CC(C)CC(C)(C)C2)c(C)o1 (stereo not given) | 1.26 µM [falling, partial curve] | 0.00501 µM [falling, full curve, poor fit]
CC(C)(C)n1nc(-c2ccc(F)cc2)c2c(N)ncnc21 | 15.8 µM [rising, single point] | 15.8 µM [rising, single point]
CC(=O)N/C(=C/c1ccc2c(c1)OCO2)C(=O)NCc1ccccc1 | 1.41 µM [falling, full curve, poor fit] | 1.41 µM [falling, full curve, poor fit]
COc1ccccc1N1CCN(C(=O)c2oc3cc(C)cc(C)c3c2C)CC1 |  | 11.2 µM [rising, partial curve]
CC1CC(C)CN(C(=O)CCNS(=O)(=O)c2ccc3c(c2)CCC(=O)N3)C1 (stereo not given) | 15.8 µM [rising, single point] | 22.4 µM [rising, single point]
C=C(C)CN(CC)c1nc(N)c2c(N)nc3c(c2c1C#N)CC(=O)N3C12CC3CC(CC(C3)C1)C2 |  | 11.2 µM [rising, partial curve]
CN(CC(=O)Nc1ccncc1)S(=O)(=O)c1ccc(Cl)cc1 | 12.6 µM [rising, single point] | 
Cc1ccc(CN2c3ccccc3S(=O)(=O)c3ccccc32)cc1 |  | 39.8 µM [rising, partial curve, poor fit]
CCOC(=O)C1=C(C)NC(=S)NC1c1ccc(-c2ccc(Cl)cc2)o1 (stereo not given) | 25.1 µM [rising, partial curve] | 35.5 µM [rising, single point]
Cc1cccc(Cn2c(SCCO)nc3c2c(=O)n(C)c(=O)n3C)c1 |  | 35.5 µM [rising, single point]
Cc1ccc(Nc2nc(C(=O)NCc3ccco3)cs2)cc1 |  | 22.4 µM [rising, partial curve]
COc1ccccc1-c1nnc2sc(COc3ccc(F)cc3)nn12 | 5.62 µM [rising, partial curve] | 14.1 µM [rising, partial curve, poor fit]
Cn1nc(CC(=O)Nc2ccc3c(c2)OCCO3)c2ccccc2c1=O | 0.447 µM [rising, full curve, poor fit] | 1.26 µM [rising, full curve]
COc1cc(/C=C/C(=O)Nc2nnc(CC(C)C)s2)cc(OC)c1OC |  | 12.6 µM [rising, partial curve, poor fit]
CCc1cc(=O)oc2cc(OC(C)=O)cc(OC(C)=O)c12 | 14.1 µM [rising, single point] | 22.4 µM [rising, single point]
CCCn1c(Nc2nc3ccccc3n2C)nc2ccccc21 | 35.5 µM [falling, single point] | 35.5 µM [falling, single point]
CCOC(=O)c1ccc(CSc2nnc3cc(C)c4ccccc4n23)cc1 | 7.08 µM [rising, partial curve, poor fit] | 8.91 µM [rising, partial curve, poor fit]

Entries shown so far that have a cyano group, in the order listed:
SMILES | AC50 [1] | AC50 [2]
CCCSc1nc(C)c(-c2csc(C(C#N)=C3CCCC3)n2)cc1C#N | 17.8 µM [rising, single point] | 
C=C(C)CN(CC)c1nc(N)c2c(N)nc3c(c2c1C#N)CC(=O)N3C12CC3CC(CC(C3)C1)C2 |  | 11.2 µM [rising, partial curve]
